Laboratory results reported in the supplement of paper PMC10849652.
The list shows a part of the results.

Amino acid sequences for entries named in this document (tags omitted). A change or cut given only in a name is not applied to a line headed by its entry.
UniProt Q16740, whole entry, looked up: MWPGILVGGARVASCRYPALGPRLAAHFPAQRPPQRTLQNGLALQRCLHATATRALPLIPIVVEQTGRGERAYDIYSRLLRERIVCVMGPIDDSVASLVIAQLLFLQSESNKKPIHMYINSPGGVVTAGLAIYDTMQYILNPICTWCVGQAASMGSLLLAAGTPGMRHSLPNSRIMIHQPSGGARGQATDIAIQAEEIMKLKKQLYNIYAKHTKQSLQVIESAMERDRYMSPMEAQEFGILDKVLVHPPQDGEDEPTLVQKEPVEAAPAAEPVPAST
UniProt Q96MX0: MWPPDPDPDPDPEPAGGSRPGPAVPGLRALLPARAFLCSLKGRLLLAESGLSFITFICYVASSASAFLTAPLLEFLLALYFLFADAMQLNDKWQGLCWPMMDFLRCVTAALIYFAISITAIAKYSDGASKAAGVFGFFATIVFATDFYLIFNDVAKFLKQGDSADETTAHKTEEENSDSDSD
UniProt Q8IWX8: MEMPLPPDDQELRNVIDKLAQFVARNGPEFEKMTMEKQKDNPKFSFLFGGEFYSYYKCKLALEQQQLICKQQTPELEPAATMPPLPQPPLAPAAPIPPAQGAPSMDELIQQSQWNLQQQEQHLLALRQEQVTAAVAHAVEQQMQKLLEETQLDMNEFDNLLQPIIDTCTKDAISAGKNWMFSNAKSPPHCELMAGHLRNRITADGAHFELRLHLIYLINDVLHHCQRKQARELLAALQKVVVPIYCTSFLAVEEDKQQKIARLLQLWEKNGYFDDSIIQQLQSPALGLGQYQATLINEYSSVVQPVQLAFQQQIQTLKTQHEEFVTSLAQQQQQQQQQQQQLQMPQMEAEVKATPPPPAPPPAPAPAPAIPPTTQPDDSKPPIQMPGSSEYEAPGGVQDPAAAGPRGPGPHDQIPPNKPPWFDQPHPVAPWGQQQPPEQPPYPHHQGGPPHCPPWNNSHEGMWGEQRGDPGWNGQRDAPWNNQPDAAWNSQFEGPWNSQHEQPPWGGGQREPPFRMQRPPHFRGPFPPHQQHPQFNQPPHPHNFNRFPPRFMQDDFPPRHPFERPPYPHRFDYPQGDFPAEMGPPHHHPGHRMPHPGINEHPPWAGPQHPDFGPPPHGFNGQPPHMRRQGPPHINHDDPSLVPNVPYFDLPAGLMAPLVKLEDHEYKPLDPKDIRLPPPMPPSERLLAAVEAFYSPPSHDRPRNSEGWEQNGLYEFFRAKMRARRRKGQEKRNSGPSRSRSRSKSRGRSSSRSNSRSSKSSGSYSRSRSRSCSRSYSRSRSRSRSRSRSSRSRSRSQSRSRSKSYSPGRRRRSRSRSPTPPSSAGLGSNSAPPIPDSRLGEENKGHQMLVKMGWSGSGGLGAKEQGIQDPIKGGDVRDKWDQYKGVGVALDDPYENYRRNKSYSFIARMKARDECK
UniProt P09496: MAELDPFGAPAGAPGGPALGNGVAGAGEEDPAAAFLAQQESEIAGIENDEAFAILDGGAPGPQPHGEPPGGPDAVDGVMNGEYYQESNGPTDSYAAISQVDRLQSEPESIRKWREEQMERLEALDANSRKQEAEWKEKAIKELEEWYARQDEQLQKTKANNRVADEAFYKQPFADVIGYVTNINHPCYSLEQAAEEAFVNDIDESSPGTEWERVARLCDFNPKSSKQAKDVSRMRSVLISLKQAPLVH
UniProt Q8N2M8: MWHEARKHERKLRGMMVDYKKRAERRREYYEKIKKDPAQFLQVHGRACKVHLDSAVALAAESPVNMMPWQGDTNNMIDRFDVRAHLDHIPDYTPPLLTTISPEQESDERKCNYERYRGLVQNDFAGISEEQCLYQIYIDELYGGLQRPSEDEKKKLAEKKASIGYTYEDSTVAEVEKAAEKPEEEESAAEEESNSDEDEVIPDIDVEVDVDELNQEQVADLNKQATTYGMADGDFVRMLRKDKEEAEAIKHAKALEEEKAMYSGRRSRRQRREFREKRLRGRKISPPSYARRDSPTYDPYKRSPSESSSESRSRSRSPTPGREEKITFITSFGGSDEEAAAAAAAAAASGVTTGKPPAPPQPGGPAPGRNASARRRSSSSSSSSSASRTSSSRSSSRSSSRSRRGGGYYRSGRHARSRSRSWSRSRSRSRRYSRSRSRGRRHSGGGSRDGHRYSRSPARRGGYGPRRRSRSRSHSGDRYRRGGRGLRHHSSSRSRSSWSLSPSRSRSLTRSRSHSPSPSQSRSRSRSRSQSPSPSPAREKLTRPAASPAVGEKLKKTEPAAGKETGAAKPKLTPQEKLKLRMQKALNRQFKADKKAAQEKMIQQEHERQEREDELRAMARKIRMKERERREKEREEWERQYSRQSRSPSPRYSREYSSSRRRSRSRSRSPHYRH
UniProt O14967: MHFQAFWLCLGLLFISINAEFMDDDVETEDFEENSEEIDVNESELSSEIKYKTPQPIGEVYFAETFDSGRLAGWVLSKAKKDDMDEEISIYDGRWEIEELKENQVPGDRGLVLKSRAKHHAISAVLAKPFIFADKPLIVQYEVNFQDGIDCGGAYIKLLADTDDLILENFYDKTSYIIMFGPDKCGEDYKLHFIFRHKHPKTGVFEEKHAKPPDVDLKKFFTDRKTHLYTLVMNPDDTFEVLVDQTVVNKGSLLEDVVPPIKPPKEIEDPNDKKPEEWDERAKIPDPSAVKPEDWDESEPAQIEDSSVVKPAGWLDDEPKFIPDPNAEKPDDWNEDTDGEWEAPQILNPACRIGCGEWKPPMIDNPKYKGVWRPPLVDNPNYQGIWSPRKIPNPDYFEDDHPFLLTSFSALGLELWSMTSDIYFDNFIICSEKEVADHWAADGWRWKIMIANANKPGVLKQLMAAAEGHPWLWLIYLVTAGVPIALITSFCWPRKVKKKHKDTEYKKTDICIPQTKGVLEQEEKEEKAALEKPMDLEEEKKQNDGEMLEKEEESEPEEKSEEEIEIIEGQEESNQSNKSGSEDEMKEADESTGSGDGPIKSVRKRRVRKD
UniProt Q9H444: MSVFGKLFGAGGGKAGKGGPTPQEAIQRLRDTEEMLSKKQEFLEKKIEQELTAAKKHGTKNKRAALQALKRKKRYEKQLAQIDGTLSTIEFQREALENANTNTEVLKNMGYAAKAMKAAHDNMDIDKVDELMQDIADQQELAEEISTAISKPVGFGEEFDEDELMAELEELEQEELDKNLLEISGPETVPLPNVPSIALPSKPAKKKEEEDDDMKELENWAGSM
UniProt O76071: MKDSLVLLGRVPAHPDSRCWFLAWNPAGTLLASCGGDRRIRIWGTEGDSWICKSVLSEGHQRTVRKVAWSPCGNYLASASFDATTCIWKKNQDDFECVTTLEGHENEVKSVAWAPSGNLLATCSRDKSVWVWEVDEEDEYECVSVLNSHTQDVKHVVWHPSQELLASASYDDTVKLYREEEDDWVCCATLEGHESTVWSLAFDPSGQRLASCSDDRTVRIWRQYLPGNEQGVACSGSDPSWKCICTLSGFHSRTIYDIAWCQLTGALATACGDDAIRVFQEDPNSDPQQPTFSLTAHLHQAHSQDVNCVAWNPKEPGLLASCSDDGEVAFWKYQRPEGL
UniProt Q7Z460: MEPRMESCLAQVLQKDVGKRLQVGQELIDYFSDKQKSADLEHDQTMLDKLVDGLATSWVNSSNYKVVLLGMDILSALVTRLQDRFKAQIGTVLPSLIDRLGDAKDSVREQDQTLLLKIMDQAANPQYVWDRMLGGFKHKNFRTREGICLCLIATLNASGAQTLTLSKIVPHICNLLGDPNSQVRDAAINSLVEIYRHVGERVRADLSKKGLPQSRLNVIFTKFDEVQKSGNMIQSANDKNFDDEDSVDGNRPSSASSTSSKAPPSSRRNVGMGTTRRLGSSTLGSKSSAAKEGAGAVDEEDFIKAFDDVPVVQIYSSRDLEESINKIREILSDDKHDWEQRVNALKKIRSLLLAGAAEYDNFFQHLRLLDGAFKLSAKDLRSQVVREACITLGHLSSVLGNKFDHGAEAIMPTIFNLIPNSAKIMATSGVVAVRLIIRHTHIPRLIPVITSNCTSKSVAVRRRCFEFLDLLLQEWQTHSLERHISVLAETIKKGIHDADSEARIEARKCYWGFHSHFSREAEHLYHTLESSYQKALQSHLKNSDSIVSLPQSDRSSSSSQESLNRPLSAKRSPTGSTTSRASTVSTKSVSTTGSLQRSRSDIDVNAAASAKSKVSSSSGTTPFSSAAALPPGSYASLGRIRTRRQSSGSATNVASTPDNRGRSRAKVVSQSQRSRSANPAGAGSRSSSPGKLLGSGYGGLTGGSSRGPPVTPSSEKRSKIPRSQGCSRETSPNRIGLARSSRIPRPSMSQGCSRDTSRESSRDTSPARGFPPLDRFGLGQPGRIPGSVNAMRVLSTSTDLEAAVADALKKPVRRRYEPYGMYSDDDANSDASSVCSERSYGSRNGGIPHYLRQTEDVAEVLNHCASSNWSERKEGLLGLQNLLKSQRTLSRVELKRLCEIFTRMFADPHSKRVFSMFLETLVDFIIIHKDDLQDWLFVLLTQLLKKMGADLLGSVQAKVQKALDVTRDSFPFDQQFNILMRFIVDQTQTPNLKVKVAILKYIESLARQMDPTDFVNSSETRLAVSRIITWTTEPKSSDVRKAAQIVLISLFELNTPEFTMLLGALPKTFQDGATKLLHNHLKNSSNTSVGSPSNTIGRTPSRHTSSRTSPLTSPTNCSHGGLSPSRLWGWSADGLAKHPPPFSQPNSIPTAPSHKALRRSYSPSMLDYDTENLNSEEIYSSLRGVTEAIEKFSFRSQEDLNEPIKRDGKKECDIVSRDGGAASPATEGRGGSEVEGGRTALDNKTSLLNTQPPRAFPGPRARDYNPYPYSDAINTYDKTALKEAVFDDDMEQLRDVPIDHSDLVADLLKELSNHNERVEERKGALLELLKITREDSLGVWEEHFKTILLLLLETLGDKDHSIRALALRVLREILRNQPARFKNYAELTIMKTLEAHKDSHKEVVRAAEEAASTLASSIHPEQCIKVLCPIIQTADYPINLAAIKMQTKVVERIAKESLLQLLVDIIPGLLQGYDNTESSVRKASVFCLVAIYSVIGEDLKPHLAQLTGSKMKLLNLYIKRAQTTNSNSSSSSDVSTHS
UniProt Q99653: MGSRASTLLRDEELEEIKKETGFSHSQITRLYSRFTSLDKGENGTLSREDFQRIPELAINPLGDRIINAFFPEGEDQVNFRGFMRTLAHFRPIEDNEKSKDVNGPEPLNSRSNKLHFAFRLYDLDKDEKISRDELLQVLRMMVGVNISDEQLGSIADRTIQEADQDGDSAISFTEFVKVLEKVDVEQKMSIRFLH
UniProt Q9Y6H1: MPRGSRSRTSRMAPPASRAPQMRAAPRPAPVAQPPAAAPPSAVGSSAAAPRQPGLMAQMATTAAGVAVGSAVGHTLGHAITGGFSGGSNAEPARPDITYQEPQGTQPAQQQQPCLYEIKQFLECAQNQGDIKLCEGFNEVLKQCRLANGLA
UniProt Q96KA5: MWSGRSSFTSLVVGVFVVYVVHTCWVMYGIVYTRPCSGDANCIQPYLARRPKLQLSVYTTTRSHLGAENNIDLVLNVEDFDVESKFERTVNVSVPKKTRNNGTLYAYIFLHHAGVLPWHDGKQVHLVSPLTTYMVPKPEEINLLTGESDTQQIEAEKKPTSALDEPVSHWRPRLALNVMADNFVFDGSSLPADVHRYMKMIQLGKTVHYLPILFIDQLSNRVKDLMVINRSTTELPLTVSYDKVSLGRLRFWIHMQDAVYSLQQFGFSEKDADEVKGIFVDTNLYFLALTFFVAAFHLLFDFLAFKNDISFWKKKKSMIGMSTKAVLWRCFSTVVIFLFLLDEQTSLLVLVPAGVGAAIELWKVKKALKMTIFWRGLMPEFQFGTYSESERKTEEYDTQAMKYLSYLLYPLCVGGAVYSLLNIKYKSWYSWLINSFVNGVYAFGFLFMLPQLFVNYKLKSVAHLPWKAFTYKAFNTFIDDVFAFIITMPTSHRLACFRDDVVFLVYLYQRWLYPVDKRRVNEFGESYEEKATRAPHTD
UniProt Q9BQ75: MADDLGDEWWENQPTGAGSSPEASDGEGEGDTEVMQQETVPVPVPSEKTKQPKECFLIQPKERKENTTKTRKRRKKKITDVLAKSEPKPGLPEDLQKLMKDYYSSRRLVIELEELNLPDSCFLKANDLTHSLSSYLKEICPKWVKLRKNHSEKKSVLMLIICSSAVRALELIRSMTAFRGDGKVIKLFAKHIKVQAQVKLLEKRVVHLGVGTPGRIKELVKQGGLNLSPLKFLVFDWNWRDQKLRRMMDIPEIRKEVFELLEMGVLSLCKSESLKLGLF
UniProt O15247: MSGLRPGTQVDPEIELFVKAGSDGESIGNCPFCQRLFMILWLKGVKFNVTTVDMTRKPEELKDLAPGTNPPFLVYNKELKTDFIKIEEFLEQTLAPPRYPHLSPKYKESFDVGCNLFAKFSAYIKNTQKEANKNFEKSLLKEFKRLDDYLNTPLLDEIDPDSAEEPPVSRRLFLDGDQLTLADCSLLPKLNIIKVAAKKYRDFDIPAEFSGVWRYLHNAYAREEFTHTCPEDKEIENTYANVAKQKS

How the values were obtained:
Test in all cases: log2 fold change, soluble protein after heating vs DMSO (PISA); higher = thermal stabilisation; K562 lysate, 10 uM; active = over 0.2 and 3.5 SD of the protein, either way, in both replicates (recomputed)
vemurafenib = compound: CCCS(=O)(=O)Nc1ccc(F)c(C(=O)c2c[nH]c3ncc(-c4ccc(Cl)cc4)cc23)c1F [vemurafenib]
In short: (§1)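 To prepare the extract, K562 pellets were dounce-homogenised in PBS pH 7.4 with 1 mM MgCl2, giving crude material at 1 mg/mL protein. This was treated with 10 μM compound for 30 min, then heated in aliquots for 3 min over 48°C-58°C before pooling and addition of NP-40 to 0.5% at 4°C. Centrifugation at 21,000xg for 90 min left soluble protein in the supernatant, which TMTpro 16plex LC-MS/MS quantified with equalised channel sums. Results are log-two fold changes in thermal stability compared with solvent controls, from duplicates.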

[1] = compound: CCCS(=O)(=O)Nc1ccc(F)c(C(=O)c2c[nH]c3ncc(Cl)cc23)c1F
In short: as §1

barasertib = compound: CCN(CCCOc1ccc2c(Nc3cc(CC(=O)Nc4cccc(F)c4)[nH]n3)ncnc2c1)CCOP(=O)(O)O [barasertib]
In short: as §1

[2] = compound: CC[C@@H]1C(=O)N(C)c2cnc(Nc3ccc(C(=O)NC4CCN(C)CC4)cc3OC)nc2N1C1CCCC1
In short: as §1

volasertib = compound: CC[C@@H]1C(=O)N(C)c2cnc(Nc3ccc(C(=O)N[C@H]4CC[C@H](N5CCN(CC6CC6)CC5)CC4)cc3OC)nc2N1C(C)C [volasertib]
In short: as §1

[3] = compound: CCn1c(C(=O)N(C2CC2)C2CC2)cc2c3c(ncn3C)c(Nc3cc(C)n(C)n3)nc21
In short: as §1

[4] = compound: CCn1cc(-c2ccnc3[nH]c(-c4cccc(CN(C)C)c4)cc23)c(-c2ccc(NC(=O)N(C)C)cc2)n1
In short: as §1

[5] = compound: CN1CCC(CNc2ccc3ncc(-c4cccc(OC(F)(F)F)c4)n3n2)CC1
In short: as §1

saracatinib = compound: CN1CCN(CCOc2cc(OC3CCOCC3)c3c(Nc4c(Cl)ccc5c4OCO5)ncnc3c2)CC1 [saracatinib]
In short: as §1

sotrastaurin = compound: CN1CCN(c2nc(C3=C(c4c[nH]c5ccccc45)C(=O)NC3=O)c3ccccc3n2)CC1 [sotrastaurin]
In short: as §1

alvocidib = compound: CN1CC[C@H](c2c(O)cc(O)c3c(=O)cc(-c4ccccc4Cl)oc23)[C@H](O)C1 [alvocidib]
In short: as §1

Tubastatin A = compound: CN1CCc2c(c3ccccc3n2Cc2ccc(C(=O)NO)cc2)C1 [Tubastatin A]
In short: as §1

[6] = compound: CNC(=O)C1=CC=CC=C1NC2=NC(=NC=C2Cl)NC3=C(C=C(C=C3)N4CCOCC4)OC
In short: as §1

defactinib = compound: CNC(=O)c1ccc(Nc2ncc(C(F)(F)F)c(NCc3nccnc3N(C)S(C)(=O)=O)n2)cc1 [defactinib]
In short: as §1

[7] = compound: CNc1nc(-c2ccc3c(N)n[nH]c3c2)cc(N2C[C@@H](C(=O)NC3CCCCC3)CC[C@H]2C)n1
In short: as §1

encorafenib = compound: COC(=O)N[C@@H](C)CNc1nccc(-c2cn(C(C)C)nc2-c2cc(Cl)cc(NS(C)(=O)=O)c2F)n1 [encorafenib]
In short: as §1

[8] = compound: COC(=O)[C@H](CCSC)NC(=O)C1=C(C=C(C=C1)NC[C@H](CS)N)C2=CC=CC=C2
In short: as §1

alisertib = compound: COc1cc(Nc2ncc3c(n2)-c2ccc(Cl)cc2C(c2c(F)cccc2OC)=NC3)ccc1C(=O)O [alisertib]
In short: as §1

[9] = compound: COc1cc2nc(-c3cc(F)ccc3O)nc(N[C@@H]3CNC[C@H]3C(C)(C)O)c2cc1OC
In short: as §1

gefitinib = compound: COc1cc2ncnc(Nc3ccc(F)c(Cl)c3)c2cc1OCCCN1CCOCC1 [gefitinib]
In short: as §1

Measured: log2 fold change

CLPP (UniProt Q16740)
inactive: vemurafenib -0.016 | [1] 0.009 | barasertib 0.143 | [2] -0.032 | volasertib -0.009 | [3] 0.007 | [4] -0.046 | [5] -0.021 | saracatinib -0.01 | sotrastaurin -0.002 | alvocidib 0.027 | Tubastatin A 0.058 | [6] -0.011 | defactinib 0.059 | [7] -0.028 | encorafenib -0.023 | [8] 0.005 | alisertib 0.005 | [9] -0.007 | gefitinib -0.043

CHD7 (UniProt Q9P2D1)
inactive: vemurafenib -0.035 | [1] 0.067 | barasertib 0.078 | [2] -0.106 | volasertib -0.101 | [3] 0.128 | [4] 0 | [5] -0.09 | saracatinib -0.055 | sotrastaurin 0.03 | alvocidib 0.009 | Tubastatin A -0.251 | [6] 0.026 | defactinib 0.05 | [7] 0.069 | encorafenib 0.058 | [8] 0.093 | alisertib 0.03 | [9] 0.003 | gefitinib 0.022

CMTM3 (UniProt Q96MX0)
inactive: vemurafenib 0.053 | [1] -0.014 | barasertib -0.04 | [2] -0.089 | volasertib 0.014 | [3] 0.03 | [4] 0.053 | [5] -0.055 | saracatinib 0.012 | sotrastaurin -0.005 | alvocidib -0.007 | Tubastatin A -0.231 | [6] 0.04 | defactinib -0.022 | [7] 0.061 | encorafenib -0.011 | [8] 0.064 | alisertib -0.099 | [9] -0.036 | gefitinib -0.123

CHERP (UniProt Q8IWX8)
inactive: vemurafenib 0 | [1] -0.003 | barasertib 0.038 | [2] -0.039 | volasertib -0.028 | [3] 0.011 | [4] 0.031 | [5] -0.007 | saracatinib 0.03 | sotrastaurin 0.008 | alvocidib 0.025 | Tubastatin A -0.055 | [6] -0.051 | defactinib 0.001 | [7] -0.003 | encorafenib 0.021 | [8] 0.031 | alisertib 0.031 | [9] -0.015 | gefitinib -0.003

Taken from above (three entries):
CHD7 (UniProt Q9P2D1)
inactive: vemurafenib -0.035 | [1] 0.067 | barasertib 0.078 | [2] -0.106 | volasertib -0.101 | [3] 0.128 | [4] 0 | [5] -0.09 | saracatinib -0.055 | sotrastaurin 0.03 | alvocidib 0.009 | Tubastatin A -0.251 | [6] 0.026 | defactinib 0.05 | [7] 0.069 | encorafenib 0.058 | [8] 0.093 | alisertib 0.03 | [9] 0.003 | gefitinib 0.022

CMTM3 (UniProt Q96MX0)
inactive: vemurafenib 0.053 | [1] -0.014 | barasertib -0.04 | [2] -0.089 | volasertib 0.014 | [3] 0.03 | [4] 0.053 | [5] -0.055 | saracatinib 0.012 | sotrastaurin -0.005 | alvocidib -0.007 | Tubastatin A -0.231 | [6] 0.04 | defactinib -0.022 | [7] 0.061 | encorafenib -0.011 | [8] 0.064 | alisertib -0.099 | [9] -0.036 | gefitinib -0.123

CHERP (UniProt Q8IWX8)
inactive: vemurafenib 0 | [1] -0.003 | barasertib 0.038 | [2] -0.039 | volasertib -0.028 | [3] 0.011 | [4] 0.031 | [5] -0.007 | saracatinib 0.03 | sotrastaurin 0.008 | alvocidib 0.025 | Tubastatin A -0.055 | [6] -0.051 | defactinib 0.001 | [7] -0.003 | encorafenib 0.021 | [8] 0.031 | alisertib 0.031 | [9] -0.015 | gefitinib -0.003

(continued)

CLTA (UniProt P09496)
inactive: vemurafenib -0.046 | [1] -0.029 | barasertib 0.164 | [2] -0.044 | volasertib 0 | [3] 0.027 | [4] 0.018 | [5] 0.063 | saracatinib -0.008 | sotrastaurin -0.027 | alvocidib 0.032 | Tubastatin A 0.004 | [6] -0.04 | defactinib 0.012 | [7] -0.014 | encorafenib -0.03 | [8] 0.071 | alisertib -0.041 | [9] -0.009 | gefitinib -0.004

CLASRP (UniProt Q8N2M8)
inactive: vemurafenib 0.014 | [1] 0.004 | barasertib 0.03 | [2] 0.005 | volasertib -0.042 | [3] -0.105 | [4] 0.125 | [5] 0.011 | saracatinib 0.02 | sotrastaurin 0.056 | alvocidib -0.013 | Tubastatin A -0.052 | [6] 0.032 | defactinib 0.004 | [7] 0.016 | encorafenib 0.026 | [8] -0.067 | alisertib 0.014 | [9] 0.001 | gefitinib 0

CLGN (UniProt O14967)
inactive: vemurafenib 0.139 | [1] -0.018 | barasertib 0.024 | [2] -0.048 | volasertib 0.012 | [3] 0.02 | [4] -0.082 | [5] 0.06 | saracatinib 0.043 | sotrastaurin 0.042 | alvocidib -0.027 | Tubastatin A 0.003 | [6] 0 | defactinib 0.015 | [7] 0.036 | encorafenib 0.019 | [8] -0.011 | alisertib 0.021 | [9] 0.022 | gefitinib 0.056

CHMP4B (UniProt Q9H444)
inactive: vemurafenib 0.046 | [1] 0.025 | barasertib -0.042 | [2] 0.047 | volasertib 0.028 | [3] 0.031 | [4] 0.043 | [5] -0.02 | saracatinib -0.021 | sotrastaurin -0.017 | alvocidib -0.02 | Tubastatin A 0.01 | [6] -0.01 | defactinib -0.081 | [7] -0.005 | encorafenib 0.006 | [8] -0.009 | alisertib -0.024 | [9] -0.022 | gefitinib 0.043

CIAO1 (UniProt O76071)
inactive: vemurafenib -0.018 | [1] -0.009 | barasertib 0.05 | [2] -0.03 | volasertib 0.001 | [3] -0.049 | [4] -0.002 | [5] 0.002 | saracatinib 0.03 | sotrastaurin -0.018 | alvocidib -0.046 | Tubastatin A 0.007 | [6] 0.033 | defactinib -0.006 | [7] 0.037 | encorafenib 0.037 | [8] -0.014 | alisertib 0.024 | [9] 0.02 | gefitinib -0.064

CLASP1 (UniProt Q7Z460)
inactive: vemurafenib 0.025 | [1] 0.013 | barasertib 0.048 | [2] -0.03 | volasertib -0.018 | [3] 0.039 | [4] -0.043 | [5] 0.042 | saracatinib 0.028 | sotrastaurin -0.022 | alvocidib -0.057 | Tubastatin A -0.032 | [6] -0.005 | defactinib -0.037 | [7] -0.006 | encorafenib 0.058 | [8] 0.009 | alisertib 0.036 | [9] -0.001 | gefitinib 0.018

CHP1 (UniProt Q99653)
inactive: vemurafenib 0.073 | [1] 0.009 | barasertib 0.096 | [2] 0.066 | volasertib -0.026 | [3] -0.032 | [4] -0.196 | [5] 0.102 | saracatinib -0.025 | sotrastaurin 0.019 | alvocidib -0.106 | Tubastatin A 0.047 | [6] 0.036 | defactinib 0.02 | [7] 0.031 | encorafenib 0.016 | [8] -0.075 | alisertib -0.014 | [9] -0.012 | gefitinib 0.061

CHCHD2 (UniProt Q9Y6H1)
inactive: vemurafenib 0.076 | [1] -0.025 | barasertib 0.011 | [2] 0.102 | volasertib 0.086 | [3] 0.108 | [4] 0.16 | [5] -0.094 | saracatinib -0.011 | sotrastaurin 0.054 | alvocidib -0.061 | Tubastatin A 0.031 | [6] -0.003 | defactinib -0.079 | [7] -0.024 | encorafenib -0.044 | [8] -0.126 | alisertib -0.051 | [9] -0.033 | gefitinib 0.28

CLPTM1L (UniProt Q96KA5)
inactive: vemurafenib -0.006 | [1] 0.049 | barasertib 0.079 | [2] 0.067 | volasertib -0.043 | [3] 0.012 | [4] -0.099 | [5] 0.016 | saracatinib 0.049 | sotrastaurin -0.001 | alvocidib 0.001 | Tubastatin A -0.064 | [6] -0.131 | defactinib 0.015 | [7] -0.204 | encorafenib 0.021 | [8] -0.029 | alisertib 0.054 | [9] -0.097 | gefitinib 0.011

CMSS1 (UniProt Q9BQ75)
inactive: vemurafenib -0.011 | [1] 0.005 | barasertib 0.023 | [2] -0.007 | volasertib -0.011 | [3] 0 | [4] 0.212 | [5] -0.086 | saracatinib 0.007 | sotrastaurin -0.003 | alvocidib 0.013 | Tubastatin A -0.036 | [6] -0.02 | defactinib -0.009 | [7] -0.032 | encorafenib 0.015 | [8] 0.024 | alisertib 0.02 | [9] 0.004 | gefitinib 0.025

CLIC2 (UniProt O15247)
inactive: vemurafenib -0.004 | [1] 0.007 | barasertib -0.039 | [2] -0.014 | volasertib -0.011 | [3] -0.006 | [4] -0.064 | [5] -0.005 | saracatinib 0.015 | sotrastaurin 0 | alvocidib 0.002 | Tubastatin A -0.002 | [6] 0.034 | defactinib 0.03 | [7] 0.024 | encorafenib -0.016 | [8] 0.018 | alisertib 0.02 | [9] -0.014 | gefitinib -0.038

CKMT1A (UniProt P12532)
inactive: vemurafenib 0.052 | [1] 0.007 | barasertib 0.025 | [2] 0.05 | volasertib 0.005 | [3] -0.038 | [4] -0.015 | [5] 0.063 | saracatinib -0.013 | sotrastaurin 0.032 | alvocidib -0.005 | Tubastatin A 0.044 | [6] 0.011 | defactinib 0.053 | [7] 0.043 | encorafenib 0.001 | [8] -0.071 | alisertib -0.018 | [9] -0.034 | gefitinib -0.031
